According to PMC12670160, “A drug-repurposing screen of FDA- and EMA-approved drugs identifies two NF-κB inhibitors active against eumycetoma” (Journal of Antimicrobial Chemotherapy, 2025):
Where a name gives a salt, the structure may show the parent alone. In all, about 5,300 compounds went through this assay and about 130 (2.5%) showed an effect of 50% or more. Some of the results follow.

The molecules below were run on M. mycetomatis strain mm55. Details: primary screen, metabolic activity vs growth control; 96 h, 2 µM; inhibitor.
In the case of `Cc1ccc(C(C)C)c(OC=C2NCCN2)c1` [ONC0005561, tymazoline], the “% viability” value is reported as 90.75%.
For `O=c1cc(N2CCN(c3cccc(C(F)(F)F)c3)CC2)[nH]c(=O)n1C1CCCCC1` [ONC0000243, ml179], the “% viability” value was 73.38%.
In the case of `CC[S+]([O-])c1nc(-c2cccc(OCc3ccccc3)c2)cc(C(F)(F)F)n1` (centres unmarked) [ONC0000089, betp], the “% viability” value is reported as 100.3%.
With `CCCCC1=NC2(CCCC2)C(=O)N1Cc1ccc(-c2ccccc2-c2nnn[nH]2)cc1` [ONC0004275, irbesartan] the “% viability” value was 80.52%.
In the case of `NC(=O)Cc1cccc(C(=O)c2ccccc2)c1N` [ONC0004683, nepafenac], the “% viability” value is reported as 115.4%.
With `C[C@H]1COC2=C1C(=O)C(=O)c1c2ccc2c1CCCC2(C)C` [ONC0001081, cryptotanshinone] the “% viability” value was 49.66%.
`CN(C)CC[C@H](CSc1ccccc1)Nc1ccc(S(=O)(=O)NC(=O)c2ccc(N3CCN(Cc4ccccc4-c4ccc(Cl)cc4)CC3)cc2)cc1[N+](=O)[O-]` [ONC0004360, abt737] was tested, and the “% viability” value was 77.62%.
`CN(C)CCC(O)(c1ccccc1)c1ccccc1Cl` (centres unmarked) [ONC0002125, clofedanol] was tested, and the “% viability” value was 64.84%.
With `CSc1ccccc1OCC(O)CNC(C)C` (centres unmarked) [ONC0003198, tiprenolol] the “% viability” value was 96.68%.
With `CCOc1ccccc1OCC1CNCCO1` (centres unmarked) [ONC0002324, viloxazine] the “% viability” value was 79.07%.
`CC[C@H]1OC(=O)[C@H](C)[C@@H](O[C@H]2C[C@@](C)(OC)[C@@H](O)[C@H](C)O2)[C@H](C)[C@@H](O[C@@H]2O[C@H](C)C[C@H](N(C)C)[C@H]2O)[C@](C)(OC)C[C@@H](C)C(=O)[C@H](C)[C@@H](O)[C@]1(C)O` [ONC0003947, clarithromycin] was tested, and the “% viability” value was 65.77%.
`COCCN1CCC(C(=O)NO)(S(=O)(=O)c2ccc(Oc3ccc(OC(F)(F)F)cc3)cc2)CC1` [ONC0000013, sd2590] was tested, and the “% viability” value was 105.6%.
With `N[C@@H]1CCCCN(c2c(F)cc3c(=O)c(C(=O)O)cn(C4CC4)c3c2Cl)C1` [ONC0004995, besifloxacin hcl besivance] the “% viability” value was 82.01%.
In the case of `O=[N+]([O-])c1ccc2c(c1)S(=O)(=O)C=C2` [ONC0004631, stattic], the “% viability” value is reported as 95.29%.
For `C/C(O)=C(\C#N)C(=O)Nc1cc(Br)ccc1Br` [ONC0000434, lfma13], the “% viability” value was 65.14%.
`CSC[C@H](N)C(=O)O` [ONC0003388, smethylcysteine] was tested, and the “% viability” value was 83.56%.
`CCN(Cc1ccc(Cl)nc1)/C(=C/[N+](=O)[O-])NC` [ONC0004553, nitenpyram] was tested, and the “% viability” value was 78.6%.
With `O=C(Nc1cc(C(F)(F)F)ccc1O)Nc1cc(C(F)(F)F)ccc1O` [ONC0002555, ns1643] the “% viability” value was 109.7%.
For `Cc1ccccc1-n1c(Cn2ncc3c(N)ncnc32)nc2cccc(C)c2c1=O` [ONC0005229, pik293], the “% viability” value was 119%.
In the case of `COc1[nH]c2ccc(F)cc2c1C(=O)OCC1CCN(CCNS(C)(=O)=O)CC1` [ONC0001723, gr125487 sulfamate], the “% viability” value is reported as 72.72%.
In the case of `CCCCOC(=O)c1ccc(N)cc1` [ONC0000690, butamben], the “% viability” value is reported as 111%.
`O=C(Nc1ccc(C(=O)O)c(O)c1)c1ccccc1` [ONC0003998, benzoylpas] was tested, and the “% viability” value was 92.12%.
For `Cc1cc(OCC(=O)O)cc(C)c1Cc1ccc(O)c(C(C)C)c1` [ONC0002599, sobetirome], the “% viability” value was 88.03%.
With `CCN(Cc1ccccc1)C(=O)Cn1c(=O)n(C)c2cnc(-c3ccccc3)nc21` [ONC0005422, emapunil] the “% viability” value was 111.5%.
With `CN1CCN(C(=O)C2C(C(=O)O)[C@@H]3CC[C@H]2O3)CC1` (some centres unmarked) [ONC0001871, lb100] the “% viability” value was 109.3%.
In the case of `Nc1nc(=O)n([C@H]2C[C@H](O)[C@@H](CO)O2)cc1F` [ONC0004119, 5fluoro2deoxycytidine], the “% viability” value is reported as 7.324%.
`CNC(=O)c1ccc(-c2cnc3ncc(Cc4ccc5ncccc5c4)n3n2)cc1F` [ONC0004567, capmatinib incb28060] was tested, and the “% viability” value was 64.35%.
With `CC(C)c1ccc(C(=O)c2cccs2)c(SCCCCCCCCN(C)C)n1` [ONC0001866, y29794 oxalate] the “% viability” value was 74.26%.
With `Cc1ccc(S(=O)(=O)n2c(N)nc3ccccc32)cc1` [ONC0004495, ml130] the “% viability” value was 59.06%.
In the case of `COc1cc2c(cc1O)CC[C@@H]1[C@@H]2CC[C@]2(C)[C@@H](O)CC[C@@H]12` [ONC0000179, 2methoxyestradiol], the “% viability” value is reported as 105.8%.
With `CCOC(=O)[C@H](CCc1ccccc1)N[C@@H](C)C(=O)N1[C@H](C(=O)O)C[C@@H]2CCC[C@@H]21` [ONC0004306, ramipril] the “% viability” value was 82.17%.
For `NC(C(=O)O)c1nnn[nH]1` (centres unmarked) [ONC0002522, tetrazol5ylglyciners], the “% viability” value was 80.86%.
For `CCCCCCCCCCCCCCCCNc1ccc(C(=O)O)cc1` [ONC0000364, cetaben], the “% viability” value was 78.57%.
With `O=C(NCc1ccncc1)C12CC3CC(C1)CC(c1ccc(Cl)cc1)(C3)C2` [ONC0005179, abc294640] the “% viability” value was 129.6%.
With `COc1cc(C(=O)c2c(C)oc3c(O)c(OC)ccc23)cc(OC)c1OC` [ONC0001135, bnc105] the “% viability” value was 66.38%.
In the case of `CCC(CC)(CC(=O)Nc1cccc(/C=C/c2nc(C3CCC3)cs2)c1)C(=O)O` [ONC0001647, cinalukast], the “% viability” value is reported as 77.68%.
In the case of `NC(=O)c1ncn([C@@H]2O[C@H](CO)[C@@H](O)[C@H]2O)n1` [ONC0002426, ribavirin], the “% viability” value is reported as 122.7%.
For `COc1cc2ncnc(Oc3cccc(NC(=O)Nc4cc(C(C)(C)C(F)(F)F)on4)c3)c2cc1OC` [ONC0004356, cep32496], the “% viability” value was 100.9%.
With `COc1c(C)cnc(Cn2cc(C#CCC(C)(C)O)c3c(Cl)nc(N)nc32)c1C` [ONC0000074, ec144] the “% viability” value was 147.5%.
With `O=c1c(O)c(-c2ccc(O)c(O)c2)oc2cc(O)ccc12` [ONC0005251, fisetin fustel] the “% viability” value was 168.5%.
In the case of `CNS(=O)(=O)Cc1ccc2[nH]cc(CCN(C)C)c2c1` [ONC0003923, sumatriptan], the “% viability” value is reported as 67.04%.
